Data published in patent publication US4629683A, “Processing silver halide photographic material with blocked agent and hydroxylamine” (Fuji Photo Film Co., Ltd., priority 1983, dated 1986).

What was measured:
[1] = Fog and relative sensitivity of coated film samples, Processings A and E; settings: for Fog: precursor 1 × 10^-5 to 5 × 10^-5 molar ratio to silver halide; for Relative Sensitivity: standard point fog + 0.2, sample No. 16 set at 100
Description: (§1) On a cellulose triacetate film support having thereon a subbing layer was coated the layers described below in the order listed, to which emulsion layer an emulsified dispersion prepared by dissolving one of the antifoggant precursors set forth in Table 3 and Magenta Coupler (C-1) in a mixture of tricresyl phosphate and ethyl acetate and then dispersing the resulting solution into a gelatin aqueous solution was added, to prepare Samples 1 to 15. The coverage of each component is shown in parentheses in terms of g/m^2 or mol/m^2.
(§2) (1) Emulsion layer containing a silver iodobromide negative emulsion (grain size: 1.5μ, silver: 1.6×10^-2 mol/m^2), Magenta Coupler (C-1) (1.33×10^-3 mol/m^2), tricresyl phosphate (0.95 g/m^2) and gelatin (2.5 g/m^2).
(§3) (2) Protective layer containing the sodium salt of 2,4-dichloro-6-hydroxy-s-triazine (0.05 g/m^2) and gelatin (1.30 g/m^2).
(§4) These films were allowed to stand for 14 hours at a temperature of 40° C. and a relative humidity of 70% and thereafter subjected to sensitometric exposure using white light and, subsequently, to the color development processing (Processing A) described below. The densities of the processed samples were measured using green light to obtain data concerning photographic properties.
Coated Samples 16 to 28, each of which contained an antifoggant or a precursor of the antifoggant, were prepared in the same manner as in Example 3. Each of these films was exposed in the same manner as in Example 3 and, subsequently, to color development processing (Processing E) wherein a color developing solution prepared by adding 4.0 g of hydroxylamine sulfate to a 1 liter portion of the color developing solution used in Processing A of Example 3 was used.
**Relative sensitivity: Standard point of the optical density to determin
the sensitivity was fog + 0.2,and the standard sensitivity of antifoggant
precursor absent sample (No. 16) was set at 100.

[2] = Maximum density of color developed in coated film samples with antifoggant precursor, Processings A to D; settings: precursor 5 × 10^-3 molar ratio to silver halide
Description: as §1, §2, §3, §4
The processing solutions used in the abovedescribed steps respectively had the following compositions.
The same processings as Processing A were also used except that color developing solutions prepared by adding 12 g of hydroxylamine sulfate (VI)-(2), 1 g of bis(methoxyethyl)hydroxylamine (VI)-(5) and 6 g of methylhydroxylamine hydrochloride (VI)-(3), respectively, to a 1 liter portion of the color developing solution of Processing A were used. These processings are designated Processing B, Processing C and Processing D, respectively.
The maximum densities of colors developed in each of the above-described Processings A, B, C and D in Samples 1 to 15 are shown in Table 3 below.

[3] = Processing A (hydroxylamine absent)
[4] = Processing E (4.0 g/l hydroxylamine sulfate)
[5] = Processing B (12 g/l hydroxylamine sulfate (VI)-(2))
[6] = Processing C (1 g/l bis(methoxyethyl)hydroxylamine (VI)-(5))
[7] = Processing D (6 g/l methylhydroxylamine hydrochloride (VI)-(3))

Compound	Fog [1, 3]	Relative Sensitivity ([1]; Processing A)	Fog [1, 4]	Relative Sensitivity ([1]; Processing E)	maximum density of color developed [2, 3]	maximum density of color developed [2, 5]	maximum density of color developed [2, 6]	maximum density of color developed [2, 7]
NS(=O)(=O)c1cccc(-n2nnnc2SCN2C(=O)c3ccccc3C2=O)c1 [(I)-(4)]	0.14	99	0.08	91				
O=C1c2ccccc2S(=O)(=O)N1CSc1nnnn1-c1ccccc1 [(I)-(15)]	0.14	100	0.09	92	1.43	0.94	0.93	1.11
CNC(=O)Nc1cccc(-n2nnnc2SCN2C(=O)c3ccccc3S2(=O)=O)c1 [(I)-(16)]	0.14	100	0.08	89	1.35	0.83	0.92	1.06
O=C1CCC(=O)N1CSc1nnnn1-c1ccccc1 [(II)-(1)]					1.41	0.80	0.97	1.05
CNC(=O)Nc1cccc(-n2nnnc2SCN2C(=O)OC(C)(C)C2=O)c1 [(II)-(9)]					1.40	0.75	0.96	1.03
O=C1OC(Sc2nnnn2-c2ccccc2)c2ccccc21 (stereo not shown) [(III)-(1)]	0.13	98	0.08	89				
O=C1OC(Sc2nnnn2-c2ccccc2)c2ccc([N+](=O)[O-])cc21 (stereo not shown) [(III)-(3)]					1.41	0.89	0.89	1.01
CN1C(=O)c2cccc(N(C)C(=O)n3nnc4cc(Cl)c(Cl)cc43)c2C1=O [(IV)-(1)]	0.14	100	0.08	90	1.40	0.82	0.91	1.02
CN(C(=O)Sc1nnnn1-c1ccccc1)c1cccc2c1COC2=O [(V)-(1)]					1.41	0.85	0.93	1.03
Cc1ccc(S(=O)(=O)Nc2ccc3c(c2)C(=O)N(CSc2nnnn2-c2ccccc2)C3=O)cc1 [Compound (I)-(11), N-(1-phenyl-5-tetrazolylthiomethyl)-4-(p-toluenesulfonamido)phthalimide]					1.40	0.84	0.96	1.08
O=C1CCCC(=O)N1CSc1nnnn1-c1ccccc1 [Compound (II)-(2), N-(1-phenyl-1-tetrazolylthiomethyl)glutarimide]	0.14	100	0.10	92				
N#CCCSc1nnnn1-c1ccccc1 [Compound B-1, reference compound]	0.14	100	0.13	89	1.38	1.22	1.07	1.22
O=C1CC(Sc2nnnn2-c2ccccc2)C(=O)N1c1ccccc1 (stereo not shown) [Compound B-2, reference compound]	0.14	98	0.13	89	1.39	1.25	1.08	1.27
Oc1ccc(CSc2nnnn2-c2ccccc2)cc1 [Compound B-3, reference compound]					0.88	0.86	0.87	0.88
